Results from paper doi:10.1101/2020.01.31.926402.
Results are given in words; binding and its absence hold for the method and conditions named. Binding seen in cells or lysates may run through a third protein. These calls come from enrichment with a bait or labelling near it, and not all partners need be listed.

Legend:
Experiment in all cases: affinity purification with mass spectrometry
BR-FLAG (human) = BR-FLAG (human) (UniProt Q69YU5)
[1] = target: BRAWNIN (BR), endogenous human (human (endogenous in HEK293T)) (UniProt Q69YU5)
[2] = target: BRAWNIN (BR), untagged, over-expressed (human) (UniProt Q69YU5)

binding (BR-FLAG (human)): binds
binding [1]: binds
binding [2]: binds
B1: GHITM, human (protein, UniProt Q9H3K2 46-345)
chain: ATKTRIGIRRGRTGQELKEAALEPSMEKIFKIDQMGRWFVAGGAAVGLGALCYYGLGLSNEIGAIEKAVIWPQYVKDRIHSTYMYLAGSIGLTALSAIAISRTPVLMNFMMRGSWVTIGVTFAAMVGAGMLVRSIPYDQSPGPKHLAWLLHSGVMGAVVAPLTILGGPLLIRAAWYTAGIVGGLSTVAMCAPSEKFLNMGAPLGVGLGLVFVSSLGSMFLPPTTVAGATLYSVAMYGGLVLFSMFLLYDTQKVIKRAEVSPMYGVQKYDPINSMLSIYMDTLNIFMRVATMLATGGNRKK
